We go through 1 substance from publication PMC9584350.

Chains of the proteins cited; added tags and fusions are not shown. Lines headed by an entry give the natural chain unless they say otherwise; changes in a name come on top. Residues count along the entry.
UniProt P54646, residues 291-552: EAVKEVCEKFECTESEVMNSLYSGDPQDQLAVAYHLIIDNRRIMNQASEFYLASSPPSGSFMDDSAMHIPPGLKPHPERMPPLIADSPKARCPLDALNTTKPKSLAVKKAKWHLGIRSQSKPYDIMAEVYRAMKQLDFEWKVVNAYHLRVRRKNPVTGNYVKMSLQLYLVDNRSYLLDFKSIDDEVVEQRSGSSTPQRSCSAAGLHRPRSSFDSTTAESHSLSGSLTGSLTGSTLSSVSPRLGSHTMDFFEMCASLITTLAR
UniProt P62330: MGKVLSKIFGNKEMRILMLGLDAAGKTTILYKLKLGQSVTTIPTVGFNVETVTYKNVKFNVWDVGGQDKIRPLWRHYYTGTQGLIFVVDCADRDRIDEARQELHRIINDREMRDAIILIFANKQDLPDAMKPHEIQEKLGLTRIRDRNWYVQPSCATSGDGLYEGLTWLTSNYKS

In the test the target is GST–AMPK-C (amino acids 291–552 of AMPKα2) (UniProt P54646). Description: pull-down; GST–AMPK-C immobilised on glutathione beads, incubated with His–Arf6-T27N; 25 mM Tris-HCl pH 7.5, 150 mM NaCl, 0.5% NP-40, 5 mM MgCl2, 1 h at 4°C; anti-His western blot; both purified. On the technique in general: A western blot detects proteins with antibodies after separation by electrophoresis.

No constants are given. Whether binding was seen depends on the method and setting. A result given as binding can be weak or reduced; the word gives no strength.

As to “His–Arf6-T27N (d13N-T27N) (from UniProt P62330)”, the binding entry was “binds”.
